Measurements from PMC4850266.
Results are given in words; binding and its absence hold for the method and conditions named. Some binding calls cover weakened binding; strength is not graded here.

Chains of the proteins cited; added tags and fusions are not shown.
UniProt Q6FMA3: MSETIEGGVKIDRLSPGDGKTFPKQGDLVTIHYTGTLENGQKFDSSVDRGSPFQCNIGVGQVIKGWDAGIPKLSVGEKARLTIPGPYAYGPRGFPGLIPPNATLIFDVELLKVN

Tests used:
[1] = biological target: C. glabrata FKBP12 (Candida glabrata) (UniProt Q6FMA3); assay: crystal structure; apo C. glabrata FKBP12, 2.65 Å; crystal packing examined; both purified
[2] = biological target: C. albicans FKBP12 (Candida albicans) (UniProt P28870); assay: crystal structure; apo C. albicans FKBP12, three crystal forms (P1, P2(1)2(1)2, C2) from different conditions, ~10 mg/ml protein; resolutions 1.99, 2.3 and 2.4 Å; intermolecular contact seen in the crystal packing; both purified

Question: Which binding [1] does the source give for “C. glabrata FKBP12 (from UniProt Q6FMA3 1-114) (enzyme)” here?
Answer: Its binding is “no binding”.

B1: C. albicans FKBP12 (enzyme, UniProt P28870 1-124)
chain: MSEELPQIEIVQEGDNTTFAKPGDTVTIHYDGKLTNGKEFDSSRKRGKPFTCTVGVGQVIKGWDISLTNNYGKGGANLPKISKGTKAILTIPPNLAYGPRGIPPIIGPNETLVFEVELLGVNGQ
Question: B1 was tested. Which binding [2] did it give?
Answer: The binding was “binds weakly”.
